For one substance, binding results are on record in PMC10367554.

By UniProt entry, the sequences of proteins in these tests, tags left out.
UniProt Q04695: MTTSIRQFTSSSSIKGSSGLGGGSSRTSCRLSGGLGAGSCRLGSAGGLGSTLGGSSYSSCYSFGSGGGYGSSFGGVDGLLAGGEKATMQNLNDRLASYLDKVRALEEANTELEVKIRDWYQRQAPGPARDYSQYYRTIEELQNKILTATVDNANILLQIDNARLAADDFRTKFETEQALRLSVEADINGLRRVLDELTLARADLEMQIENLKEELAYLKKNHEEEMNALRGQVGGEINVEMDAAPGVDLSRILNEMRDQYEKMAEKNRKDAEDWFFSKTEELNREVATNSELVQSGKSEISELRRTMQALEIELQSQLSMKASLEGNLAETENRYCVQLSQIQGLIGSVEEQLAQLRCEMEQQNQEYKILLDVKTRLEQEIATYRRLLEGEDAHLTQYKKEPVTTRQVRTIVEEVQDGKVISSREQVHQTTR
UniProt P06733: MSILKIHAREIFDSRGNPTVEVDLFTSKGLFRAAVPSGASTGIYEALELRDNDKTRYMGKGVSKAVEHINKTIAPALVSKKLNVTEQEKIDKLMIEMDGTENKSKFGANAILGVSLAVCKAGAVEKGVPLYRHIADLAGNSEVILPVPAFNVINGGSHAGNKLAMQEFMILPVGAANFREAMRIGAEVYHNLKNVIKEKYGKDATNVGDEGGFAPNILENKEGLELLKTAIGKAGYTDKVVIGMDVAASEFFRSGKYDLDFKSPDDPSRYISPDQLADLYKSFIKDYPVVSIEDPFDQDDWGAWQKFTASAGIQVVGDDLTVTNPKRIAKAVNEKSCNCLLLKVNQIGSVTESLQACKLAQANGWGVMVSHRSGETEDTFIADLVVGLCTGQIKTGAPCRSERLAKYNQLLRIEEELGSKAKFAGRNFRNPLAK

For assay [1], the target named is Keratin 17, overexpressed in K17-overexpressing KCs (UniProt Q04695). Briefly: co-IP; cell lysates incubated with anti-K17 (sc-393002) for 3 h at 4°C, then Protein A/G PLUS-Agarose overnight at 4°C, beads washed 4 times with cold PBS, immunoblot; Pso Mix-treated KCs and K17-overexpressing KCs.
For assay [2], the target named is Keratin 17 (human (endogenous in human keratinocytes)) (UniProt Q04695). The assay is described as above.

These are yes or no findings as the source states them, for the method shown. Binding seen in cells or lysates may run through a third protein. Some binding calls cover weakened binding; strength is not graded here.

For “α-enolase (from UniProt P06733 1-434) (enzyme)”, the binding entry in assay [1] and in assay [2] was “binds” throughout.
